Experimental findings from US20190167771 are described below.

Sequences of proteins named here, by UniProt entry; tags and fusion partners are left off.
UniProt P49591, whole entry S101D/S241D: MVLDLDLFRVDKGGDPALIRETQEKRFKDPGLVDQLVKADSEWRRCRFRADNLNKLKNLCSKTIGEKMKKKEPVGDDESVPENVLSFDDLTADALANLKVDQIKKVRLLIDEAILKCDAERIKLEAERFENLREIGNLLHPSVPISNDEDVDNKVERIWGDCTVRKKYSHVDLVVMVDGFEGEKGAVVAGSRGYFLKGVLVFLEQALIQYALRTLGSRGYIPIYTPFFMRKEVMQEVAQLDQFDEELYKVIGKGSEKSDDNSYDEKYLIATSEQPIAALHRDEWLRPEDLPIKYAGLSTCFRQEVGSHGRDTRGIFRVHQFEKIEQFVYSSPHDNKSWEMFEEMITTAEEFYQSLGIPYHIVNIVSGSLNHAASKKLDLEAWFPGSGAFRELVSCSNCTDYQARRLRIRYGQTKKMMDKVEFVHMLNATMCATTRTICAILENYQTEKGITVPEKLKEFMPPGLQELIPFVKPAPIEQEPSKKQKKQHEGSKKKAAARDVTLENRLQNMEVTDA

A weaker result is weaker than the reference pair of the same experiment.

The series addresses SerRS S101D/S241D (Homo sapiens) (UniProt P49591). Briefly: EMSA. The following applies: phosphomimetic; binding attenuated vs wild type; same buffer; purified recombinant protein; protein details: C-terminal His6; label: 5'-32P.

“GGCGGGGCGGAGCCATGCGCCCCCCCC (double strand) [VEGFA promoter 27-bp SerRS site]”: the binding result was “binds more weakly”.
